This is one part of the list.

This test deals with T1, OsSMF1 (Oryza sativa, UniProt Q6ZLB0 1-436).
T1 sequence: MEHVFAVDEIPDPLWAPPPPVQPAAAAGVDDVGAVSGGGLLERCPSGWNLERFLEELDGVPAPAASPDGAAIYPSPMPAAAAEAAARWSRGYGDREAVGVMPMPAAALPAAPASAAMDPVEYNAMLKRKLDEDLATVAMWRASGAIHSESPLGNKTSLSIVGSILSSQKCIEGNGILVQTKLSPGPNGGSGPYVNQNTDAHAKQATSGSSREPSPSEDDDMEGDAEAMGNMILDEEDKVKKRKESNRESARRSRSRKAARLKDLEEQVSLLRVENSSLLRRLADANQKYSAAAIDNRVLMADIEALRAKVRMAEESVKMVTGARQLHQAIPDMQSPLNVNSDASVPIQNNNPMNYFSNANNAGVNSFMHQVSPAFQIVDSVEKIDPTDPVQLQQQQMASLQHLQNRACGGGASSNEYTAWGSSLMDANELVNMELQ
Kind of test: protein-binding microarray (RPBM); PBS, 2% BSA, 51.3 ng/ul salmon testes DNA, 50 uM zinc acetate, 200 nM TF, 25 C, 1 h; high values mean tight binding. As to conditions: protein: recombinant; tags: N-terminal polyhistidine and DsRed monomer fusion (pET32a); chain copies: 2; label: CyDye5-dUTP incorporated in the synthesized complementary strand; 3' TTTTT single-stranded linker to array surface; dsDNA, one strand shown. Put shortly:
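In PBS with 2% BSA, salmon testes DNA and 50 µM zinc acetate, 200 nM protein was incubated on a custom Agilent array at 25 °C for 1 h and then washed off. The array had been made double-stranded by primer extension with Cy5-dUTP and blocked with 2% BSA. The proteins were transcription factors fused N-terminally to polyhistidine and DsRed, expressed in E. coli BL21-CodonPlus and purified on Ni–NTA. The binding signal is per-feature fluorescence intensity (arbitrary units) from an Axon 4000B scanner.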
For the sequence “TCTGGCACGCTGAAATTGCTGCCGCAAGTACAACAAGAGCCGGAGTCACCTAGTGCAG”, the binding signal is 3320 fluorescence intensity (a.u.).
With “AAATGGATGATGTAATCTTATCTTCTTCATGTAGCTGGTGCGGAGTCACCTAGTGCAG”, the binding signal was 3760 fluorescence intensity (a.u.).
With “ATTTTATTGGGATCAAATTACCACGTAGGCGCCACGTCAACGGAGTCACCTAGTGCAG” the figure was 20900 fluorescence intensity (a.u.).
For “TTGTGGGTGTCTGCGTTGGCCTCTTATATGGCAGGTTTGACGGAGTCACCTAGTGCAG” the value was 3250 fluorescence intensity (a.u.); for “CGAGGAGAGGGAGAGGGGCTTCATCTGCTGCTGCTTCGGCCGGAGTCACCTAGTGCAG”, 3900 fluorescence intensity (a.u.); for “CCTCCCCTACGCGTCCCACGTCCGCAAGACGGCCGGCTACCGGAGTCACCTAGTGCAG”, 6470 fluorescence intensity (a.u.).
With “GAGAGAGCATATGGTGGTAAAAGGACAGTGACGCGACAGCCGGAGTCACCTAGTGCAG” the figure was 6670 fluorescence intensity (a.u.); with “CCGTGGCGCGGAGCGAGGCGGCGCAGATGGGGTACTACGCCGGAGTCACCTAGTGCAG”, 3400 fluorescence intensity (a.u.).
On to “GTACGACCAATTTCCGTTTCATCATCATGTCGGGCAGTAACGGAGTCACCTAGTGCAG”, for which the binding signal is 23800 fluorescence intensity (a.u.).
With “ATTTAATGTCCTAAGTTTAGTATTGGAGTCATACATCTATCGGAGTCACCTAGTGCAG” the figure was 3320 fluorescence intensity (a.u.).
For “TGAGTCAGAGAAGTACAGGTGGATGGGCAGTGCTCGTCTTCGGAGTCACCTAGTGCAG” the value was 31600 fluorescence intensity (a.u.); for “AAACCGTACATATTAAAATAGACTACCGATATTTTCCTTTCGGAGTCACCTAGTGCAG”, 31300 fluorescence intensity (a.u.).
With “CCTTGTGTGTGTCAGATCGCTGCCAGCCAATTGTCAAGTGCGGAGTCACCTAGTGCAG” the figure was 3910 fluorescence intensity (a.u.).
As for “TTTGTCCAGGCGGCGTGTCGGGTGTTCGCTCGCAGTGGCCCGGAGTCACCTAGTGCAG”, the binding signal was 3950 fluorescence intensity (a.u.).
Turning to “CCCCGTGGTGCAGCGCACGTGCGAGGTCGTTACCCCTCTCCGGAGTCACCTAGTGCAG”, the binding signal was 3280 fluorescence intensity (a.u.).
With “TATATGAAATCAAAATAAGTGTCTTTACCATGTCATCGTCCGGAGTCACCTAGTGCAG” the figure was 5260 fluorescence intensity (a.u.).
For “CTCATGGGCTCCTGCTGCTACCACCAACTGATCTCTCCTACGGAGTCACCTAGTGCAG” the value was 3170 fluorescence intensity (a.u.); for “GAAATTGTGCATTCGGTTAAGCCCTGACGTGGATTTTAGCCGGAGTCACCTAGTGCAG”, 6800 fluorescence intensity (a.u.).
Consider “GGGCGGGCGGGCTCGAGGTTGTGGTGGGGCGTGTGGCAGGCGGAGTCACCTAGTGCAG”, for which the binding signal was 4690 fluorescence intensity (a.u.).
With “CAGGGCAGCGGCAGGTGGGGAGGAGGCCGGCGGGTCGGCGCGGAGTCACCTAGTGCAG” the figure was 3470 fluorescence intensity (a.u.).
With “TCACCAAGACCATAAATTGACACATCGCATGCCACCAGGGCGGAGTCACCTAGTGCAG” the figure was 5190 fluorescence intensity (a.u.); with “ACACTTCAACGTTGCATACGTGGCGCCCCACCACACCACCCGGAGTCACCTAGTGCAG”, 20700 fluorescence intensity (a.u.); with “TATTGGATCGCGATTGACCGTTACCTATAGGTACTGTACCCGGAGTCACCTAGTGCAG”, 5960 fluorescence intensity (a.u.).
In the case of “CAAGGCTTGATGATGTACAGCGTGGAATTACGTATTCTATCGGAGTCACCTAGTGCAG”, the binding signal is 6470 fluorescence intensity (a.u.).
For the sequence “TGTTCTTCAACATGATATTCGAGCCCGTCAGCAATGGCAACGGAGTCACCTAGTGCAG”, the binding signal was 4480 fluorescence intensity (a.u.).
For “CCATGTAAGTGCCACGTCAACGCCACGTGGATCGAAGACTCGGAGTCACCTAGTGCAG” the value was 55500 fluorescence intensity (a.u.); for “GCATGCCAACACACCTACGTTCGCTTCATAACTCCACAAGCGGAGTCACCTAGTGCAG”, 3920 fluorescence intensity (a.u.); for “GATGCCATCGGGATTCGAAAGGGTGCAACGTGTAGGCGTGCGGAGTCACCTAGTGCAG”, 4300 fluorescence intensity (a.u.).
With “CTAGAGGTGTGCTGATAGAAAGTCGGTACGTGGCCTGTCACGGAGTCACCTAGTGCAG” the figure was 3830 fluorescence intensity (a.u.); with “GCCCTCTTCCTATTGCCACGGATGCAATTTATTATGCTGGCGGAGTCACCTAGTGCAG”, 6700 fluorescence intensity (a.u.); with “CTGAACGGGTTCAACCTCCGATTGTTCGATTCCGCGTCATCGGAGTCACCTAGTGCAG”, 5150 fluorescence intensity (a.u.).
On to “GCTCTCCACAAAGGTGACAGTGAATCAGTTCATTCTGAAACGGAGTCACCTAGTGCAG”, for which the binding signal is 3370 fluorescence intensity (a.u.).
As to “ACGCAGTTGTTTGTGTCAGCGGCCACGTCACAAACCATTGCGGAGTCACCTAGTGCAG”, the binding signal is 7430 fluorescence intensity (a.u.).
Turning to “AACCAGCCATGTAGACACCACGTCAGCTGAAACCGCCATTCGGAGTCACCTAGTGCAG”, the binding signal is 19600 fluorescence intensity (a.u.).
For “AATTTCTTCGGAATTTTGTCATCCACCCAGAAACTACCTGCGGAGTCACCTAGTGCAG” the value was 3750 fluorescence intensity (a.u.).
As for “TACGAAACCGGATCACTTTGGGTCCTCAGGCAGTTTTGACCGGAGTCACCTAGTGCAG”, the binding signal was 4050 fluorescence intensity (a.u.).
With “CCCTTCGCAAAAGCCACGCGCCACCAAATCCTCCTTTTCTCGGAGTCACCTAGTGCAG” the figure was 3950 fluorescence intensity (a.u.); with “GCGCGCGCGGGCGCGGCGTCGCTCCCAGCGTGCGCCATGGCGGAGTCACCTAGTGCAG”, 6390 fluorescence intensity (a.u.).
With “GTATGTCCGAGATTTAGTGTTACACGTCAGATCCAACACACGGAGTCACCTAGTGCAG”, the binding signal was 15700 fluorescence intensity (a.u.).
For “TTTGAGGGAGCTCAACATATATATGATGGTATCATTTGCTCGGAGTCACCTAGTGCAG” the value was 4410 fluorescence intensity (a.u.); for “TAGATATAATTACCTTTTCAGGACTCTATCCACGTGCGGCCGGAGTCACCTAGTGCAG”, 3550 fluorescence intensity (a.u.); for “CTCAATTAATTTCGTCCTAAGTGAACCTGTCATCTGTAGCCGGAGTCACCTAGTGCAG”, 3420 fluorescence intensity (a.u.).

Source of the values: PMC7819943, “Rice protein-binding microarrays: a tool to detect cis-acting elements near promoter regions in rice”.
